Data source: PubChem BioAssay AID1259308 (NCATS, 2017)
Assay: 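Knock-downs that increase output of a recombinant reporter protein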 (primary screen). Cell system: human HEK293 embryonic kidney cells stably expressing firefly luciferase (HEK-CMV-Luc2-Hygro). Knock-down reagent: single siRNA against human genes, 0.8 pmol siRNA per well. Duration: 72 h. Read-out: 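Reporter luminescence and viable-cell signal on separate replicate plates, given as percent of non-targeting control and median/MAD z-scores, plus per-cell luciferase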. Direction: total luciferase, z-score and total luciferase, % of control: higher = more reporter protein produced; luciferase per cell, z-score: higher = more reporter output per viable cell; viable cells, % of control: higher = more viable cells. Active means: 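Active when the median/MAD z-score for overall luciferase is greater than 3; a gene was taken forward for validation with new siRNAs if at least two of its three siRNAs passed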. Meaning of the calls: active = raised luciferase; inactive = no rise.
The whole screen tested about 59,000 reagents; shown is a random part of them. About 1,510 of them (2.6%) were called active. 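Calls use total luciferase alone and ignore viability, so some active siRNAs may act by altering cell number.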 Entries without a mark were called inactive. The numbers tell different reagents against one gene apart.

| gene | reagent | total luciferase, z-score | total luciferase, % of control | luciferase per cell, z-score | viable cells, % of control |
| --- | --- | --- | --- | --- | --- |
| ZNF850-DT | 1 | -0.0101 | 81.7 | -0.0963 | 93.6 |
| ZNF850-DT | 2 | 1.2 | 106 | 1.23 | 85.5 |
| ZNF850-DT | 3 | 1.43 | 110 | 1.3 | 87.5 |
| STC1 | 1 | -0.58 | 70.4 | -0.223 | 83.4 |
| STC1 | 2 | 0.7 | 95.8 | 0.00128 | 107 |
| STC1 | 3 | -1.41 | 53.8 | -1.88 | 98.4 |
| OPCML | 1 | 3.27 (active) | 147 | 2.15 | 93.1 |
| OPCML | 2 | -1.06 | 60.9 | -1.2 | 93.3 |
| OPCML | 3 | 0.845 | 98.7 | 0.543 | 95.6 |
| PPEF1 | 1 | 0.647 | 94.7 | 1.53 | 70.9 |
| PPEF1 | 2 | 0.469 | 91.2 | 0.0993 | 99.3 |
| PPEF1 | 3 | -0.513 | 71.7 | 0.576 | 68.8 |
| ZNF646 | 1 | 0.915 | 100 | 0.791 | 90.8 |
| ZNF646 | 2 | -0.264 | 76.6 | -0.317 | 93.1 |
| ZNF646 | 3 | 0.903 | 99.9 | 1.48 | 75.6 |
| CNOT10 | 1 | -0.581 | 70.3 | -0.4 | 87.3 |
| CNOT10 | 2 | 0.0278 | 82.4 | 0.0253 | 91.5 |
| CNOT10 | 3 | -2.09 | 40.3 | -2.25 | 81.6 |
| HIPK4 | 1 | 0.649 | 94.8 | 0.929 | 82.9 |
| HIPK4 | 2 | 0.578 | 93.4 | 0.55 | 90.3 |
| HIPK4 | 3 | -0.361 | 74.7 | -0.159 | 87.1 |
| FAM120C | 1 | 0.357 | 89 | 0.751 | 81.6 |
| FAM120C | 2 | -1.08 | 60.4 | -0.831 | 84 |
| FAM120C | 3 | 0.22 | 86.3 | -0.0802 | 98.5 |
| SAAL1 | 1 | -0.485 | 72.2 | -0.917 | 103 |
| SAAL1 | 2 | 0.383 | 89.5 | 0.402 | 90 |
| SAAL1 | 3 | -1.65 | 49 | -2.28 | 100 |
| PDZD2 | 1 | 0.69 | 95.6 | -0.299 | 116 |
| PDZD2 | 2 | -1.04 | 61.3 | -0.502 | 78.2 |
| PDZD2 | 3 | -0.297 | 76 | 0.295 | 78.6 |
| ARK2N | 1 | -1.15 | 59 | -0.66 | 78.4 |
| ARK2N | 2 | -0.165 | 78.6 | 0.811 | 70.9 |
| ARK2N | 3 | 1.25 | 107 | 1.5 | 80.4 |
| AKT3 | 1 | 1.97 | 121 | 1.89 | 82.3 |
| AKT3 | 2 | 0.187 | 85.6 | -0.449 | 108 |
| AKT3 | 3 | 1.44 | 111 | 1.15 | 91.4 |
| LINC01014 | 1 | 1.95 | 121 | 2.21 | 75.4 |
| LINC01014 | 2 | 0.25 | 86.9 | 1.02 | 74.3 |
| LINC01014 | 3 | -2.57 | 30.7 | -1.27 | 47.9 |
| PRPF40B | 1 | -1.08 | 60.4 | -1.38 | 97.1 |
| PRPF40B | 2 | -0.477 | 72.4 | -0.15 | 84.2 |
| PRPF40B | 3 | 1.77 | 117 | 0.504 | 114 |
| BEX3 | 1 | 2.9 | 140 | 2.53 | 80.2 |
| BEX3 | 2 | -0.313 | 75.7 | -0.771 | 104 |
| BEX3 | 3 | 1.81 | 118 | 1.38 | 91.7 |
| DEFB4A | 1 | -1.97 | 42.7 | -2.3 | 87.5 |
| DEFB4A | 2 | 0.765 | 97.1 | 1.4 | 75 |
| DEFB4A | 3 | -0.465 | 72.6 | -0.263 | 87 |
| LSP1 | 1 | 0.798 | 97.8 | 0.212 | 103 |
| LSP1 | 2 | -0.147 | 79 | -0.117 | 91 |
| LSP1 | 3 | 0.208 | 86 | -0.285 | 104 |
| WNT16 | 1 | 3.05 (active) | 143 | 2.55 | 81.3 |
| WNT16 | 2 | -0.648 | 69 | 0.185 | 73.4 |
| WNT16 | 3 | 0.985 | 101 | 0.999 | 87.2 |
| TRMT112 | 1 | -1.21 | 57.9 | -1.62 | 99.2 |
| TRMT112 | 2 | -1.21 | 57.8 | -0.888 | 81.6 |
| TRMT112 | 3 | -0.72 | 67.6 | -0.393 | 83.7 |

Hits (from the list above):
| gene | reagent | total luciferase, z-score | total luciferase, % of control | luciferase per cell, z-score | viable cells, % of control |
| --- | --- | --- | --- | --- | --- |
| OPCML | 1 | 3.27 (active) | 147 | 2.15 | 93.1 |
| WNT16 | 1 | 3.05 (active) | 143 | 2.55 | 81.3 |
